Reference: patent US20190060428A1, “FORMULATIONS FOR NEOPLASIA VACCINES AND METHODS OF PREPARING THEREOF” (The Broad Institue Inc., priority 2015, published 2019)
The name of at least one read-out is uncertain.

Assay: Short-term room temperature stability of Pool 3 mixed with Hiltonol (RP-HPLC)
Type: physicochemical
Settings: Pool 3 + Hiltonol
Description: A peptide pool (Pool 3) consisting of the five peptides shown in Table 6 below was prepared by dissolution in DMSO and dilution with D5W/Succinate (2 mM) to 2 mg/ml and pooling to a final peptide concentration of 400 μg per ml and a final DMSO concentration of 4%. After preparation, peptides were filtered with a 25 mm Pall PES filter (Cat#4612) and dispensed into Nunc Cryo vials (#375418) in one ml aliquots.
Three samples were prepared by mixing 0.75 ml of Pool3 with 0.25 ml Hiltonol® as planned for the dosage form preparation. The samples were then left at room temperature for 0, 4 and 6 hours and analyzed by RP-HPLC (Table 7). […] As slight increase in a second peak associated with peptide CS6919 was noted, increasing from 14% to 17% and 18% at 4 and 6 hours, respectively. […] Recovery of all peptides was above 90%, indicating no breakdown and loss of any peptides in the final dosage form after 6 hour room temperature incubation.

Substance	Recovery Main Peak (4 Hours RT) [%]	Recovery Total AUP (4 Hours RT) [%]	Recovery Main Peak (6 Hours RT) [%]	Recovery Total AUP (6 Hours RT) [%]
H-KLAWRGRISSSGCPSMTSPPSPMFGMTLHT-OH [CS6919]	93	97	106	108
H-SKRGVGAKTLLLPDPFLFWPCLEGTRRSL-OH [CS6934]	95	94	107	108
H-VAGLAASGLHGSAWLVPGEQPVSGPHHGKQ-OH [CS6931]	95	95	110	110
H-AHRQGEKQHLLPVFSRLALRLPWRHSVQL-OH [CS6941]	93	93	107	107
H-AESAQRQGPNGGGEQSANEF-OH [CS7416]	95	95	109	109
